Among the data in article PMC8717606 are binding values, retold here.

Chains of the proteins cited; added tags and fusions are not shown. Lines headed by an entry give the natural chain unless they say otherwise; changes in a name come on top.
UniProt P24001: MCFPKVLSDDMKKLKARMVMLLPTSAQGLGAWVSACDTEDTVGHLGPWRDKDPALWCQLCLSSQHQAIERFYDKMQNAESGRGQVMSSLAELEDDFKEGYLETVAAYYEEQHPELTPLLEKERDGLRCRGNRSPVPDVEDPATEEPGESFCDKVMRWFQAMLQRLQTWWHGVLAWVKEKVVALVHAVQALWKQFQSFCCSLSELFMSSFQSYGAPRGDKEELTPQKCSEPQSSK

Results are given in words; binding and its absence hold for the method and conditions named. Binding seen in cells or lysates may run through a third protein. A yes stands for co-enrichment or nearness to the bait. Other partners may have been found.

For the experiment, the target named is Interleukin 32 (IL32) (Homo sapiens) (UniProt P24001). The experiment can be described thus: affinity purification with mass spectrometry; endogenous IL-32 precipitated with IL-32 antibody (R&D) coupled to M-270 Dynabeads from pre-cleared lysates (1% CHAPS, 50 mM Tris, 150 mM NaCl) of JJN-3 cells kept 24 h in hypoxia (2% O2); 2 h at 4°C, 4 washes with PBS; IL-32 KO cells as control; 5 replicates.

B1: Signal recognition particle 72 (SRP72) (protein, UniProt O76094 1-671)
chain: MASGGSGGVSVPALWSEVNRYGQNGDFTRALKTVNKILQINKDDVTALHCKVVCLIQNGSFKEALNVINTHTKVLANNSLSFEKAYCEYRLNRIENALKTIESANQQTDKLKELYGQVLYRLERYDECLAVYRDLVRNSQDDYDEERKTNLSAVVAAQSNWEKVVPENLGLQEGTHELCYNTACALIGQGQLNQAMKILQKAEDLCRRSLSEDTDGTEEDPQAELAIIHGQMAYILQLQGRTEEALQLYNQIIKLKPTDVGLLAVIANNIITINKDQNVFDSKKKVKLTNAEGVEFKLSKKQLQAIEFNKALLAMYTNQAEQCRKISASLQSQSPEHLLPVLIQAAQLCREKQHTKAIELLQEFSDQHPENAAEIKLTMAQLKISQGNISKACLILRSIEELKHKPGMVSALVTMYSHEEDIDSAIEVFTQAIQWYQNHQPKSPAHLSLIREAANFKLKYGRKKEAISDLQQLWKQNPKDIHTLAQLISAYSLVDPEKAKALSKHLPSSDSMSLKVDVEALENSAGATYIRKKGGKVTGDSQPKEQGQGDLKKKKKKKKGKLPKNYDPKVTPDPERWLPMRERSYYRGRKKGKKKDQIGKGTQGATAGASSELDASKTVSSPPTSPRPGSAATVSASTSNIIPPRHQKPAGAPATKKKQQQKKKKGGKGGW
Consider B1, for which the binding entry is given as “binds”.

B2: Zinc metallopeptidase STE24 (ZMPSTE24) (protein, UniProt O75844 1-475)
chain: MGMWASLDALWEMPAEKRIFGAVLLFSWTVYLWETFLAQRQRRIYKTTTHVPPELGQIMDSETFEKSRLYQLDKSTFSFWSGLYSETEGTLILLFGGIPYLWRLSGRFCGYAGFGPEYEITQSLVFLLLATLFSALTGLPWSLYNTFVIEEKHGFNQQTLGFFMKDAIKKFVVTQCILLPVSSLLLYIIKIGGDYFFIYAWLFTLVVSLVLVTIYADYIAPLFDKFTPLPEGKLKEEIEVMAKSIDFPLTKVYVVEGSKRSSHSNAYFYGFFKNKRIVLFDTLLEEYSVLNKDIQEDSGMEPRNEEEGNSEEIKAKVKNKKQGCKNEEVLAVLGHELGHWKLGHTVKNIIISQMNSFLCFFLFAVLIGRKELFAAFGFYDSQPTLIGLLIIFQFIFSPYNEVLSFCLTVLSRRFEFQADAFAKKLGKAKDLYSALIKLNKDNLGFPVSDWLFSMWHYSHPPLLERLQALKTMKQH
Turning to B2, the binding result is “binds”.

B3: Syntaxin 6 (STX6) (protein, UniProt O43752 1-255)
chain: MSMEDPFFVVKGEVQKAVNTAQGLFQRWTELLQDPSTATREEIDWTTNELRNNLRSIEWDLEDLDETISIVEANPRKFNLDATELSIRKAFITSTRQVVRDMKDQMSTSSVQALAERKNRQALLGDSGSQNWSTGTTDKYGRLDRELQRANSHFIEEQQAQQQLIVEQQDEQLELVSGSIGVLKNMSQRIGGELEEQAVMLEDFSHELESTQSRLDNVMKKLAKVSHMTSDRRQWCAIAILFAVLLVVLILFLVL
On to B3, for which the binding entry was “binds”.

B4: Solute carrier family 12 member 9 (protein, UniProt Q9BXP2-1 1-914)
chain: MASESSPLLAYRLLGEEGVALPANGAGGPGGASARKLSTFLGVVVPTVLSMFSIVVFLRIGFVVGHAGLLQALAMLLVAYFILALTVLSVCAIATNGAVQGGGAYFMISRTLGPEVGGSIGLMFYLANVCGCAVSLLGLVESVLDVFGADATGPSGLRVLPQGYGWNLLYGSLLLGLVGGVCTLGAGLYARASFLTFLLVSGSLASVLISFVAVGPRDIRLTPRPGPNGSSLPPRFGHFTGFNSSTLKDNLGAGYAEDYTTGAVMNFASVFAVLFNGCTGIMAGANMSGELKDPSRAIPLGTIVAVAYTFFVYVLLFFLSSFTCDRTLLQEDYGFFRAISLWPPLVLIGIYATALSASMSSLIGASRILHALARDDLFGVILAPAKVVSRGGNPWAAVLYSWGLVQLVLLAGKLNTLAAVVTVFYLVAYAAVDLSCLSLEWASAPNFRPTFSLFSWHTCLLGVASCLLMMFLISPGAAGGSLLLMGLLAALLTARGGPSSWGYVSQALLFHQVRKYLLRLDVRKDHVKFWRPQLLLLVGNPRGALPLLRLANQLKKGGLYVLGHVTLGDLDSLPSDPVQPQYGAWLSLVDRAQVKAFVDLTLSPSVRQGAQHLLRISGLGGMKPNTLVLGFYDDAPPQDHFLTDPAFSEPADSTREGSSPALSTLFPPPRAPGSPRALNPQDYVATVADALKMNKNVVLARASGALPPERLSRGSGGTSQLHHVDVWPLNLLRPRGGPGYVDVCGLFLLQMATILGMVPAWHSARLRIFLCLGPREAPGAAEGRLRALLSQLRIRAEVQEVVWGEGAGAGEPEAEEEGDFVNSGRGDAEAEALARSANALVRAQQGRGTGGGPGGPEGGDAEGPITALTFLYLPRPPADPARYPRYLALLETLTRDLGPTLLVHGVTPVTCTDL
B4: the binding entry is “binds”.

B5: Mannose-6-phosphate receptor, cation dependent (M6PR) (protein, UniProt P20645 27-277)
chain: TEEKTCDLVGEKGKESEKELALVKRLKPLFNKSFESTVGQGSDTYIYIFRVCREAGNHTSGAGLVQINKSNGKETVVGRLNETHIFNGSNWIMLIYKGGDEYDNHCGKEQRRAVVMISCNRHTLADNFNPVSEERGKVQDCFYLFEMDSSLACSPEISHLSVGSILLVTFASLVAVYVVGGFLYQRLVVGAKGMEQFPHLAFWQDLGNLVADGCDFVCRSKPRNVPAAYRGVGDDQLGEESEERDDHLLPM
Consider B5, for which the binding entry is listed as “binds”.

B6: Phosphatidylcholine:ceramide cholinephosphotransferase 1 (protein, UniProt Q86VZ5-1 1-413)
chain: MKEVVYWSPKKVADWLLENAMPEYCEPLEHFTGQDLINLTQEDFKKPPLCRVSSDNGQRLLDMIETLKMEHHLEAHKNGHANGHLNIGVDIPTPDGSFSIKIKPNGMPNGYRKEMIKIPMPELERSQYPMEWGKTFLAFLYALSCFVLTTVMISVVHERVPPKEVQPPLPDTFFDHFNRVQWAFSICEINGMILVGLWLIQWLLLKYKSIISRRFFCIVGTLYLYRCITMYVTTLPVPGMHFNCSPKLFGDWEAQLRRIMKLIAGGGLSITGSHNMCGDYLYSGHTVMLTLTYLFIKEYSPRRLWWYHWICWLLSVVGIFCILLAHDHYTVDVVVAYYITTRLFWWYHTMANQQVLKEASQMNLLARVWWYRPFQYFEKNVQGIVPRSYHWPFPWPVVHLSRQVKYSRLVNDT
With B6, the binding entry is listed as “binds”.
